Data: patent publication US10725042B2, “Methods of diagnosing and treating cancer” (Case Western Reserve University, priority 2012, dated 2020)
At least one structure is not confirmed: it was looked up by name or label, or the drawing left a doubt.

Assays:
Type in all cases: cell-based, human
[1] = test system: H1299/PR-1 cells; test: Colony survival assay, H1299/PR-1 pemetrexed-resistant subline
Experimental: (§1) For cells in suspension, colony survival was determined by crystal violet staining of colonies formed after 10-day exposure of 5×10^3 cells to pemetrexed in soft agar. For adherent cells, colony survival was determined by methylene blue staining of colonies formed after 10-day exposure of 100 cells to pemetrexed in 6-well culture dishes. Only colonies containing ≥50 cells were counted. Data points represent percent of colonies relative to untreated control averaged over 3 experiments.
H1299 cells were exposed to step-wise increasing concentrations of pemetrexed over a period of 4 months. UNG expression was monitored in the bulk population at 2, 8, 12 and 16 weeks prior to administration of the induction dosage and at 24 weeks in a population of bulk chronically exposed cells that had been without pemetrexed for 8 weeks. H1299 cells capable of growth in 50 nM pemetrexed selection pressure were subcloned by limiting dilution in 96 well plates. Independent sublines were designated H1299/PR-1 and H1299/PR-2.

[2] = test system: DLD1/UDG−/− cells; test: Colony survival (clonogenic) assay, UDG−/− cells; conditions: 5-FU 0-20 μM, temozolomide 0-1500 μM, cisplatin 0-40 μM
Experimental: Recombinant virus was grown in 293T cells and subsequently used to infect DLD1 cells. Selection of positively transfected clones was achieved by the addition of G418 to the culture medium. A second infection of transfected clones with Cre-recombinase adenovirus caused excision of the neomycin resistance cassette. Dflag cell line was produced by transfection of UDG expression vector in UDG^−/− cells to restore UDG activity.
Tumor cells (500-2000/dish) were plated and treated with pemetrexed (0-400 nM), 5-fluorouracil (0-20 μM), temozolomide (0-1500 μM), or cisplatin (0-40 μM). After 7 days, surviving colonies were stained with methylene blue for 30 min at room temperature and the colonies containing more than 50 cells were counted to generate survival curves.

[3] = test system: H1975 66 shUNG cells; test: Colony survival assay, H1975 66 shUNG cells
Experimental: as §1
UNG directed shRNA and siRNA plasmids were purchased from Origene. Transfection was carried out according to manufacturer specifications. Stably transfected clones (shRNA) were selected with puromycin with subsequent expansion of a well-isolated colony of cells.

## Cn1nnc2c(C(N)=O)ncn2c1=O [temozolomide]
[1]
  cross-resistance of PR-1 and PR-2 cells: not resistant
[2]
  differential sensitivity of UDG−/− vs UDG+/+ cells: no significant differential sensitivity
[3]
  cross sensitivity of UNG deficient H1975 cells: not
